Reference: article PMC7887217
Positions count from the first letter of the chain named. Results are given in words; binding and its absence hold for the method and conditions named. In cells and extracts the contact can be indirect. Some results given as binding are weak or reduced against the parent protein; the word gives no strength. Tags and fused reporters may be left off the sequences shown.

By UniProt entry, the sequences of proteins in these tests, tags left out. Where a name states a change or a piece, a line headed by the entry shows the natural chain unless it says otherwise.
UniProt P31749: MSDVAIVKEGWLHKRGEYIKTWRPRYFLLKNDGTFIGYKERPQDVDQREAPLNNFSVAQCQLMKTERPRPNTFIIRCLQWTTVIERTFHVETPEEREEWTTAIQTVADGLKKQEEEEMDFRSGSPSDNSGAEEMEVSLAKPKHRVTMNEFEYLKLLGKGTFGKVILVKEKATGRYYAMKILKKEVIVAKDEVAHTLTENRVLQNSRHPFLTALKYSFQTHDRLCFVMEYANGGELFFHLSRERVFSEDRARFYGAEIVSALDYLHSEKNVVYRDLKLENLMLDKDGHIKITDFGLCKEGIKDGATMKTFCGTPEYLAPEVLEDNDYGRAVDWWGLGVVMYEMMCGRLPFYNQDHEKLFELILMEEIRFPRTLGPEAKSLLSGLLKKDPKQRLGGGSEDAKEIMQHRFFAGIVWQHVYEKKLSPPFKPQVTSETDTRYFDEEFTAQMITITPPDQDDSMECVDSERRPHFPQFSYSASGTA

Legend:
[1] = biological target: T1, Flag-CASTOR1 WT (human cytosolic arginine sensor for mTORC1 subunit 1) (human) (UniProt Q8WTX7); assay: co-IP; CASTOR1 with AKT1, AKT1 domains or endogenous AKT; cells not given; lysis in 50 mM Tris-HCl pH 7.4, 150 mM NaCl, 1 mM EDTA, 1% Triton X-100; antibody-conjugated agarose beads at 4 °C overnight; immunoblot
T1 sequence: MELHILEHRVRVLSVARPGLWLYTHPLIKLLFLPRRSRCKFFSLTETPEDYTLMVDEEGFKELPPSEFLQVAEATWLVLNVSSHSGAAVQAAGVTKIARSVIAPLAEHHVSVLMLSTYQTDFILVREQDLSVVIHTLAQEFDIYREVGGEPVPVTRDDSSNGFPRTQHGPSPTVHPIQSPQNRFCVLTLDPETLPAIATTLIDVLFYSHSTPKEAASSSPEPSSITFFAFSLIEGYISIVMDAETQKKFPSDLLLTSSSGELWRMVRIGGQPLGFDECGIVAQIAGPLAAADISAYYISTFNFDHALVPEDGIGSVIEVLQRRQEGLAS

[2] = biological target: T2, Flag-CASTOR1 S14D (human) (UniProt Q8WTX7); assay: as above
T2 sequence: T1 sequence with S14D

Substance	binding [1]	binding [2]
AKT1 kinase domain (HA-AKT1-120-433aa) (from UniProt P31749 120-433) (domain or fragment)	binds	–
ectopically expressed AKT1 (from UniProt P31749 1-480) (enzyme)	binds	binds
